{"source": "patent US8076321B2", "about": "“Compositions for treatment of systemic mastocytosis” (priority 2005, dated 2011)", "test_system": "Ton.Kit.wt cells (Ba/F3 with inducible wt KIT)", "assay": "cells", "details": "Mus musculus, BaF3, 48 h, read-out: IC50, SCF-dependent growth of doxycycline-exposed Ton.Kit.wt cells"}
{"smiles": "Cc1ccc(NC(=O)c2ccc(CN3CCN(C)CC3)cc2)cc1Nc1nccc(-c2cccnc2)n1", "note": "[imatinib, reference compound]", "values": [{"measurement": "IC50", "value": "3 to 30", "unit": "nM"}]}
